# Measurements taken from patent publication US20260098072A1, “METHODS OF STIMULATING APPETITE AND/OR INCREASING BODY WEIGHT USING NON-NATURALLY OCCURRING MELANOCORTIN RECEPTOR ANTAGONIST ANALOGS” (Endevica Bio, Inc., priority 2022, published 2026).
# Chains of the proteins cited; added tags and fusions are not shown. Lines headed by an entry give the natural chain unless they say otherwise; changes in a name come on top.
# UniProt P32245, whole entry: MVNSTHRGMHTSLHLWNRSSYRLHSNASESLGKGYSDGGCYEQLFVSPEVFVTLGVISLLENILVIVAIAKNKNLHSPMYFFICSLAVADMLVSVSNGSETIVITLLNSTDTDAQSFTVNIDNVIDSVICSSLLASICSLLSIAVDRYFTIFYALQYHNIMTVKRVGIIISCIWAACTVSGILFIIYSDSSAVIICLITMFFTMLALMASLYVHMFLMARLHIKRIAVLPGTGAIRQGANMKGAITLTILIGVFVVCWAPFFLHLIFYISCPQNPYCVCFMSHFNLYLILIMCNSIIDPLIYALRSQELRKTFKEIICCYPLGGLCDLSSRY
# UniProt P41968: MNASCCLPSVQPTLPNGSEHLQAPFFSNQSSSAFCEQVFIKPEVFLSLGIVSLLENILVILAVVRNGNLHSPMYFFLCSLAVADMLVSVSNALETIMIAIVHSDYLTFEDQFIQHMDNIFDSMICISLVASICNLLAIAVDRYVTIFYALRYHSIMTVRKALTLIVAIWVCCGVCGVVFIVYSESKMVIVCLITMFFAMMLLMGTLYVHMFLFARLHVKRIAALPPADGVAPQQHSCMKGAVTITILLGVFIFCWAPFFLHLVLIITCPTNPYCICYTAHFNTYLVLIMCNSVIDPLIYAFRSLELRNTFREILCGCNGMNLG
# Entries after “also recorded” stand apart in the source; their conditions may differ. Where a name gives a salt, the structure may show the parent alone. For at least one compound, name, drawing or mass did not settle the structure. Positions of bridges follow the written chain, without caps; N, C: chain ends. Non-standard residues stand in square brackets, D forms with d. Residues, ends and D or L forms follow the SMILES beside them. d2Nal = N[C@H](Cc1ccc2ccccc2c1)C(=O)O; Nle = CCCC[C@H](N)C(=O)O
# How the values were obtained:
# human MC4R = target: T1, human MC4R (Homo sapiens, UniProt P32245); assay: cAMP accumulation assay (HTRF), antagonist activity at MC4R; format: cell-based
# T1 construct: expressed in transfected cells; host or cells: HEK293/MC4R/CRE-GFP
# Description: (§1) The antagonist activity of exemplary non-naturally occurring melanocortin analogs (SEQ ID NOs: 3, 4, 6, 9-11, 14, 15, and 291-309) at the melanocortin 3 receptor (MC3R) and melanocortin 4 (MC4R) receptor was measured via cAMP accumulation assay, according to the following procedure.
# (§2) Recombinant cell lines shown in Table 1 were stimulated with melanocortin receptor antagonists and evaluated for cyclic adenosine monophosphate (cAMP) levels as a measurement of receptor activation. cAMP levels were quantified using Homogeneous Time-Resolved Fluorescence (HTRF). The stimulation and CAMP measurement were performed sequentially. First, the compound stimulated the G-protein coupled receptor (GPCR) which then induced downstream signaling, which was measured soon after. Cell lines and stimulated receptors used are detailed in Table 1.
# (§3) Twenty-seven exemplary synthetic peptides were tested for antagonist activity at the human MC3R and MC4R at concentrations ranging from 0.1 nM to 1,000 nM. After stimulation, the level of cyclic adenosine monophosphate (CAMP) in each well was quantified via Homogenous Time-Resolved Fluorescence (HTRF) as a measurement of receptor activity. Dose-response curves and estimated IC50 values were then obtained for each antagonist peptide against the MC3R and MC4R. HS024 (TFA) and was used as a positive control for the antagonist activity of MC3R (FIG. 1A) and MC4R (FIG. 1B).
# human MC3R = target: T2, human MC3R (Homo sapiens, UniProt P41968); assay: cAMP accumulation assay (HTRF), antagonist activity at MC3R; format: cell-based
# T2 construct: expressed in transfected cells; host or cells: HEK293/CRE-luc/MC3R
# Description: as §1, §2, §3
# [1] = 28-day body weight and food consumption study in dogs; format: in vivo, dog; conditions: 0.5, 3, 10 mg/kg/day for 28 days
# Lewis sarcoma rat = assay: Reversal of cachexia-induced lethargy; format: in vivo; conditions: once-daily peripheral dosing for 48 hours (2 IP doses)
# Excerpt: In animals and humans, cachexia produces “lethargy,” i.e., the aversion to activity. Grossberg et al., J. Neurosci. 31 (31): 11376-11386. […] This therapeutic effect is dependent on a stabilized non-naturally occurring melanocortin analog C-terminal extension. Video recordings characterized control animal behavior as neo-exploratory movement about the cage, i.e., repeated “sniffing” the air to presumably sample odors (e.g., neighboring animals), grooming, and intermittent bouts of eating and drinking. Caldecott-Hazard et al., J. Neurosci. 8 (6): 1951-1961 (1988).
# The animal typically remains in one position for an extended period of time (>1 minute). Occasionally it will change position, assuming the new position for an extended period. The rats show no grooming behavior, evident in the appearance of their coat and eyes.
# [2] = 28-day body weight and food consumption study in rats; format: in vivo, rat; conditions: 0.5, 3, 10 mg/kg/day for 28 days
# KPC mouse model = KPC mouse model (pancreatic ductal adenocarcinoma), body composition; format: in vivo
# LPS model of cachexia = assay: LPS-induced cachexia assay in rats; format: in vivo, rat; design: Periph. Activity / Anti-cachectic Activity: key to the marks not given beside the values
# Description: The LPS model uses rats were maintained on a 12 h light/dark schedule with ad libitum access to food and water. Animals were handled daily for a minimum of three consecutive days to decrease non-specific handling stress. On the day of the experiment, individually housed animals received intraperitoneal injections of LPS dissolved in 0.5% low-endotoxin BSA, 0.9% saline or 0.5% BSA in 0.9% saline alone, and were returned to their home cage. The drug or control was administered (ICV, IP, or PO, depending on the type of study) 1-hour after LPS injection.
# In the experiments performed in accordance with the present technology, a series of melanocortin receptor antagonist peptides were examined in a bacterial endotoxin inducing cachexia assay. For this assay, a rat is challenged with a single peripheral injection of lipopolysaccharide (LPS). LPS is a heat-stable lipo-polysaccharide, the major component of the outer membrane (capsule) of gram negative bacteria. In non-capsulated strains, it appears as a cell surface protein. LPS produces a strong immune response, including secretion of the proinflammatory cytokines Tumor Necrosis Factor α (TNFα) and interleukin-1 (IL-1). Proinflammatory cytokines are known factors that induce cachexia.
# Rats are maintained on a 12-hour light/dark cycle. Animals are handled daily for a minimum of 5 consecutive days to acclimate them to the handling required for the experiment. […] On the day of the experiment, individually housed animals receive intraperitoneal (IP) injections of LPS dissolved in 0.5% low-endotoxin BSA, 0.9% saline or 0.5% BSA in 0.9% saline alone, and returned in their home cage. Melanocortin receptor antagonist peptides were administered (IP or by gavage, depending on the type of study) one hour after the LPS injection. The extent of cachexia is measured by the reduction in food intake, measured every two hours. The cachexia typically lasts only a single day. However, rats lose up to 5% of their body weight during a 12-hour light cycle, making up this loss plus food needed for normal growth during the 12-hour dark cycle. Thus, failure to eat appropriately during a single dark cycle is determinable from the animal's weight and any changes thereof.
# A series of melanocortin receptor antagonist peptides were examined in a bacterial toxin inducing cachexia assay. In this assay, a rat was challenged with a single peripheral injection of lipopolysaccharide (LPS), a bacterial toxin that rapidly induces acute cachexia. The extent of cachexia was measured as a reduction in food intake, measured every two hours. The cachexia typically lasts only a single day.
Structure (SMILES),"IC50 (human MC4R; HEK293/MC4R/CRE-GFP, estimated from dose-response curve)","IC50 (human MC3R; HEK293/CRE-luc/MC3R, estimated from dose-response curve)","Hill Coefficient (human MC4R; dose-response fit, MC4R)","Top (%) (human MC4R; dose-response fit, MC4R)",body weight [1],food consumption [1],behavior (lethargy) (Lewis sarcoma rat),body weight [2],food consumption [2],"overall lean mass increase (KPC mouse model; living weight and carcass weight, % gain over initial weight, vs KPC/saline)","cardiac mass (heart weight) (KPC mouse model; mouse, in vivo)","food intake and body weight, 24-hours (LPS model of cachexia; 0.2 mg/kg intraperitoneally)",oral activity / gastrointestinal transport (LPS model of cachexia; gavage (intra-gastric)),Oral Activity (LPS model of cachexia; gavage administration),Periph. Activity (LPS model of cachexia; peripheral (IP) administration),peripheral (IP) anti-cachexia activity / blood-brain barrier transport (LPS model of cachexia; peripheral administration),"Anti-cachectic Activity (LPS model of cachexia; rat, in vivo)","Hill Coefficient (human MC3R; dose-response fit, MC3R)","Top (%) (human MC3R; dose-response fit, MC3R)"
"CCCC[C@@H]1NC(=O)[C@@H](NC(C)=O)CSSC[C@@H](C(N)=O)NC(=O)CNC(=O)[C@H](Cc2c[nH]c3ccccc23)NC(=O)[C@H](CCCNC(=N)N)NC(=O)[C@@H](Cc2ccc3ccccc3c2)NC(=O)[C@H](Cc2c[nH]cn2)NC(=O)[C@H](CCCNC(=N)N)NC1=O [HS024(TFA), reference compound] (Ac-C[Nle]RH[d2Nal]RWGC-NH2; disulfide 1-9 (inferred); N-terminus and C-terminus assumed)",153 nM,867 nM,–,–,–,–,–,–,–,–,–,–,–,–,–,–,–,–,–
"CCCC[C@H](NC(C)=O)C(=O)N[C@H]1CC(=O)NCCCC[C@@H](C(=O)N[C@@H](C(=O)N2CCC[C@@H]2C(N)=O)C(C)C)NC(=O)[C@H](Cc2c[nH]c3ccccc23)NC(=O)[C@H](CCCN=C(N)N)NC(=O)[C@@H](Cc2ccc3ccccc3c2)NC(=O)[C@@H]2CCCN2C1=O [TCMCB07, Ac-Nle-c[Asp-Pro-dNal(2′)-Arg-Trp-Lys]-dVal-dPro-NH2] (Ac-[Nle]DP[d2Nal]RWK[dV][dP]-NH2; lactam 2-7)",–,–,0.83,118.91%,significant body weight gain,increased food intake,restored “normal” behavior to rats,significant body weight gain,increased food intake,substantial difference in overall lean mass increase,preservation of cardiac mass,had stimulated appetites and gained weight,imparts oral activity to the drug molecule and causes a significant enhancement of food intake,+,++,significant increase in food intake; also recorded: produced a significant increase in feeding,+++,0.85,111.40%
